Data: PMC9616507
No constants are given. Whether binding was seen depends on the method and setting. In cells and extracts the contact can be indirect. Some entries that bind do so weakly or less than the wild type. One block for each molecule: values may come before it.

By UniProt entry, the sequences of proteins in these tests, tags left out.
UniProt Q8BQZ5: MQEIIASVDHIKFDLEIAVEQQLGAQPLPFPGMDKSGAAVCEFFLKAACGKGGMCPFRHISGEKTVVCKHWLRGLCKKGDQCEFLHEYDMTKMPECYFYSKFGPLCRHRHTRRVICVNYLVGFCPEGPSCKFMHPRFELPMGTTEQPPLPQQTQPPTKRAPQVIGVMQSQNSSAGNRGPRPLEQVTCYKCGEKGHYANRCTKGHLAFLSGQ

Experiments:
[1] = molecular target: T1, PABPN1 (UniProt Q86U42); assay: co-IP; interaction reported as independent of mRNA / RNA-independent; cells, tags, bait and RNase treatment not told in the text shown
T1 sequence: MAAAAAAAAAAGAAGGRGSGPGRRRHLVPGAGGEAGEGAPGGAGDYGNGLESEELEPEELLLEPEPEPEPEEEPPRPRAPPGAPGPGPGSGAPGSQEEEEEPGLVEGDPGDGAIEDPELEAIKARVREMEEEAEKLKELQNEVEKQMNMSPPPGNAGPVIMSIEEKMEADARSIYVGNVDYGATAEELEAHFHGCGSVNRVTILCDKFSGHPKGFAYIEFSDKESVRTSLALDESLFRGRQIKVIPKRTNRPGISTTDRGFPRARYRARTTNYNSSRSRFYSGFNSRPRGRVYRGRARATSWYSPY

[2] = molecular target: T2, PABPN1, Q86U42; assay: as above; conditions: remark: other sources report otherwise
T2 chain: T1 sequence

- binding [1]: binds
Molecule: CPSF4 (from UniProt Q8BQZ5 1-211)

- binding [2]: binds
B1: PABPN1, Q86U42 1-306 (protein)
chain: T1 sequence
